Data from patent US20060293323A1, “Therapeutic Combinations of erb B Kinase Inhibitors and Antineoplastic Therapies” (priority 2002, published 2006).
For at least one compound, name, drawing or mass did not settle the structure.

What was measured:
NSCLC, renal cell cancer = experiment: Clinical administration of CI-1033 alone; format: in vivo, human; settings: preliminary studies with CI-1033 alone, patients
From the text: The treatment may be prolonged, with or without an off drug rest period.

[1] = system: MDA-MB-453 human breast carcinoma cells; experiment: Paclitaxel-induced apoptosis in vitro, paclitaxel and CI-1033 alone or in combination; format: cell-based; settings: CI-1033 alone
From the text: However, none of the inhibitors of the erbB family tyrosine kinases described above are irreversible and are pan erbB tyrosine kinase inhibitors. […] [Inoue, Clin. Cancer Res. 6:4874-84, 2000.]

[2] = system: murine colon carcinoma, C26; experiment: Subcutaneous murine colon carcinoma C26, CI-1033 and capecitabine; format: in vivo; settings: CI-1033 alone
Procedure: (§1) On Day 0 of the test, each mouse was surgically implanted (subcutaneously) with a fragment of tumor weighing approximately 30 mg. The mice were weighed weekly, and tumor size (width and length in mm) were measured three times each week with standard calipers. Tumor mass for each animal was calculated according to the formula: [formula] where “a” is width of the tumor in mm, and “b” is the length in mm. Evaluation of anticancer activity was evaluated based on the formula T-C, where “T” and “C” are the median time (in days) required for the treated and control (respectively) tumors to reach a pre-determined size of 750 mg (the “evaluation size”). […] Standard agents were diluted as described in the package inserts and administered at various dosage levels in 0.5 mL injections.
(§2) In each experiment, mice bearing established tumors were randomized into one of four treatment groups. One group served as control treatment groups. […] The third group was further divided into four subgroups, each of which received the designated standard agent by the route and schedules indicated below.
(§3) Group 4 was further subdivided into groups receiving combination therapy.
Capecitabine was administered PO at doses of 750 and 500 mg/kg on days 14-16, 21-23, and 28-30.

[3] = system: H125 human non-small cell lung cancer xenograft; settings: etoposide IP days 12, 16, 20 at 50 mg/kg; CI-1033 200, 124, 77 mg/kg
Procedure: as §1, §2, §3
Etoposide was administered IP at doses of 80, 50, and 31 mg/kg on days 12, 16 and 20.

[4] = system: H125 human cell lung carcinoma xenografts; format: in vivo; settings: CI-1033 orally days 32-35; topotecan IP days 26-30
Procedure: as §1, §2, §3

[5] = system: OVCAR-5 Human Ovarian Cancer xenografts; experiment: Advanced OVCAR-5 xenografts, CI-1033 and cisplatin; format: in vivo; settings: CI-1033 PO days 28-37; cisplatin IV days 28, 32, 34
Procedure: One group served as control treatment groups.
Cisplatin at doses of 12, 6, 3, and 1.5 mg/kg was administered IV on days 28, 32, and 34.

`C=CC(=O)Nc1cc2c(Nc3ccc(F)c(Cl)c3)ncnc2cc1OCCCN1CCOCC1` [CI-1033, N-[4-(3-chloro-4-fluoro-phenylamino)-7-(3-morpholin-4-yl-propoxy)-quinazolin-6-yl]-acrylamide] was tested, and the responses (NSCLC, renal cell cancer) was “one partial response in a heavily pretreated patient with NSCLC and a minor response in one patient each with renal cell cancer and NSCLC”, the apoptotic fraction [1] was “did not affect the apoptotic fraction” and the “effectiveness as a single agent” value [2] was “ineffective”. For the same molecule, the “delaying the growth of H125 as a single agent” value [3] was “very effective”, the “anticancer effectiveness measured by tumor growth delay, single agents” value [4] was “meaningful anticancer effectiveness” and the “anticancer effects when administered alone” value [5] was “Neither cisplatin nor CI-1033 when administered alone produced meaningful anticancer effects”.
